In patent US20050069918A1:
Results are given in words; binding and its absence hold for the method and conditions named. Binding seen in cells or lysates may run through a third protein. Some binding calls cover weakened binding; strength is not graded here.

Tests used:
[1] = biological target: GST-p27 fusion protein [GST: P08515]; experiment: competition of the peptide (0-20 ug/ml) in the GST-p27 pull-down of 35S-JAB1
[2] = biological target: GST-p27 fusion protein [GST: P08515]; experiment: competition of the peptide (0-20 ug/ml) in the GST-p27 pull-down of 35S-JAB1 (figure legend)

For LAKATRDSCKTTIEAIHG [synthetic JAB1-peptide #1 corresponding to JAB1-p27 binding-domain (18 amino acid residues)], which binding [1] is on record?
The binding was “binds”.

What about the binding [2] of the same binder?
Its binding is “binds”.
